In ChEMBL document CHEMBL5036304, “One Atom Makes All the Difference: Getting a Foot in the Door between SOS1 and KRAS” (J Med Chem, 2021):
≈ marks a conversion by molar mass, not a printed value.

Tests used:
physchem [1] = details: buffer, pH 6.8
physchem [2] = details: buffer, pH 4.5

In the case of `COc1cc2nc(C)nc(N[C@H](C)c3cc(N)cc(C(F)(F)F)c3)c2cc1O[C@H]1CCOC1`, the solubility (physchem [1]) was 84 µg/mL (≈ 182 µM) and the solubility (physchem [2]) was greater than 100 µg/mL.
